# Measured values: PubChem BioAssay AID1347075 (National Center for Advancing Translational Sciences (NCATS), 2019)
# Screen size: about 400,000 compounds; about 5,500 (1.4%) were called active. The shares of active, inactive and inconclusive entries below differ from those in the screen. Calls come from the whole dose curve; as a rule, active = well fitted cell-killing curve with a large enough effect; inconclusive = small, poorly fitted or top-dose-only effect, or effect the other way; inactive = flat fitted curve, though single readings scatter. Potencies of inconclusive entries are doubtful fits and often do not repeat.
# Assay: qHTS assay for MDR1-selective chemotherapeutics: Primary screen using the parental adenocarcinoma cell KB-3-1; note: nearly all actives have a fitted effect of over 60% in size
# Conditions: KB-3-1 viability, CellTiter-Glo ATP luminescence, 72 h; activity change, negative = cytotoxic: at 46.1 µM (top of the series)
# Method in brief: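 Cytotoxicity measured as CellTiter-Glo luminescence after 72 h at 37 C. Compound titrations were pinned onto drug-naive KB-3-1 parental adenocarcinoma cells grown in DMEM with 10% FBS, and normalized data fitted to concentration-response curves.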
# % is set by controls: 0 for no effect and ±100 for the full control effect; potency is the fitted concentration of half-maximal effect.
SMILES,Potency,"activity change, negative = cytotoxic"
Cc1ccc(C)c(Cn2cc(S(=O)(=O)c3ccc(Cl)cc3)c(=O)c3cc(F)ccc32)c1,inactive,–
CC(C)CC(=O)/C(=C\c1ccc(Cl)cc1Cl)n1cncn1,"inconclusive: 29.1 µM [cytotoxic, single point]",–
COc1ccc(OCCN2CCN(C(=O)c3ccc(OC)cc3)CC2)cc1,"inconclusive: 7.31 µM [cytotoxic, partial curve]",–
CC(=O)N1CCc2c(sc3c2c(=O)n(CCc2ccccc2)c(=O)n3Cc2ccc(Cl)cc2)C1,active: 20.6 µM,–
C[C@@H]1CN([C@@H](C)CO)C(=O)c2cc(NC(=O)Nc3ccccc3)ccc2O[C@@H](C)CCCCO[C@H]1CN(C)C(=O)Nc1ccc(C(F)(F)F)cc1,inactive,–
CCOC(=O)c1c(CN2CCN(Cc3ccccc3)CC2)n(C)c2cc(Br)c(OC)cc12,"inconclusive: 20.6 µM [cytotoxic, single point]",–
Cc1ccc(-c2c(C)n3c4c(=O)n(C)c(=O)n(C)c4nc3n2CCO)cc1,active: 2.06 µM,–
CCOCCCNc1ncnc2c1cnn2-c1ccc(C)c(C)c1,"inconclusive: 29.1 µM [cytotoxic, single point]",–
CCNc1nc(OC)nc(Oc2ccc(=O)[nH]n2)n1,–,inconclusive: -8.6%
COc1nc(NC2CCCCC2)nc(NC(C)(C)C)n1,"inconclusive: 2.91 µM [cytotoxic, partial curve, poor fit]",–
CC(C)(C)c1ccc(S(=O)(=O)N2CCN(Cc3noc(CCC(=O)N4CCCCC4)n3)CC2)cc1,inactive,–
CN(Cc1ccccc1)C(=O)c1ccc(Nc2nc(C(N)Cc3ccccc3)cs2)nc1 (stereo not drawn),inactive,–
CCc1nc(Nc2ccc(F)cc2)c2oc3ccccc3c2n1,"inconclusive: 18.4 µM [cytotoxic, single point]",–
CCOC(=O)c1nc2cc3n(c(C)c-2c1C)C(C)C(CC)=C3C (stereo not drawn),"inconclusive: 14.6 µM [cytotoxic, single point]",–
CCCCOc1ccc(C(=O)C(CN2CCOCC2)c2ccccc2)cc1 (stereo not drawn),"inconclusive: 20.6 µM [cytotoxic, single point]",–
CCOC(=O)C1(Cc2cccc(Cl)c2)CCCN(C(=O)c2c(CC)noc2C)C1 (stereo not drawn),inactive,–
O=C1c2sc3nc4c(c(=O)n3c2C(=O)N1c1ccccc1)CCC4,"inconclusive: 29.1 µM [cytotoxic, single point]",–
CC(C)OCCCNS(=O)(=O)c1ccc2c(c1)OCCO2,inactive,–
CC(/C=N/NC(=O)c1n[nH]c2c1CCC2)=C\c1ccccc1,active: 0.326 µM,–
S=c1nn[nH]c2ccccc12,inactive,–
Cc1ccc(-c2nc3sc(CCNC(=O)c4ccc(C)c(C)c4)c(C)n3n2)cc1,inactive,–
CCC(=O)NC(c1ccco1)c1cc(Cl)c2cccnc2c1O (stereo not drawn),"inconclusive: 2.91 µM [cytotoxic, partial curve, poor fit]",–
COc1ccc(C(=O)n2nc(-c3ccco3)nc2NCc2cccs2)cc1OC,inactive,–
CC(=O)Nc1ccc(-c2ccnc3c2CC(C(=O)NCC2CCOCC2)O3)cc1 (stereo not drawn),active: 5.8 µM,–
CCOC(=O)C1C(c2ccc(OC)c(OC)c2)c2c([nH][nH]c2=O)CC1(C)O (stereo not drawn),"inconclusive: 29.1 µM [cytotoxic, single point]",–

# Five structures out of the list, ordered by molecular weight, low to high.
SMILES,Potency,"activity change, negative = cytotoxic"
COc1nc(NC2CCCCC2)nc(NC(C)(C)C)n1,"inconclusive: 2.91 µM [cytotoxic, partial curve, poor fit]",–
O=C1c2sc3nc4c(c(=O)n3c2C(=O)N1c1ccccc1)CCC4,"inconclusive: 29.1 µM [cytotoxic, single point]",–
CCOC(=O)C1C(c2ccc(OC)c(OC)c2)c2c([nH][nH]c2=O)CC1(C)O (stereo not drawn),"inconclusive: 29.1 µM [cytotoxic, single point]",–
Cc1ccc(-c2nc3sc(CCNC(=O)c4ccc(C)c(C)c4)c(C)n3n2)cc1,inactive,–
CN(Cc1ccccc1)C(=O)c1ccc(Nc2nc(C(N)Cc3ccccc3)cs2)nc1 (stereo not drawn),inactive,–

# Later entries:

SMILES,Potency,"activity change, negative = cytotoxic"
O=C(NCCO)c1ccc(-c2cnc3cccnn23)cc1,inactive,–
Cc1cccc(C)c1NC(=O)c1sccc1SCc1cccc(C(F)(F)F)c1,"inconclusive: 29.1 µM [cytotoxic, single point]",–
Cc1ccccc1-n1c(SCc2ccc(Cl)cc2)nc2[nH]ncc2c1=O,inactive,–
Cc1cc(C)c2c(C)c(C(=O)Nc3c(C)n(C)n(-c4ccccc4)c3=O)oc2c1,inactive,–
CCCCNC(=S)NNC(=O)c1ccco1,inactive,–
Nc1ccc(/C=C/c2cc(Cl)nc3ccccc23)cc1,"inconclusive: 7.31 µM [cytotoxic, partial curve, poor fit]",–
Cc1nn(-c2ccccn2)c2c1-c1nc(N3CCOCC3)ncc1CC2,"inconclusive: 32.6 µM [cytotoxic, single point]",–
Cc1ccc(C(=O)Nc2nc(-c3ccc([N+](=O)[O-])cc3)cs2)o1,inactive,–
CCN(CC)C1CCN(C(=O)c2ccc(OC3CCN(C(=O)CCOC)CC3)cc2)C1 (stereo not drawn),"inconclusive: 18.4 µM [cytotoxic, partial curve, poor fit]",–
N#Cc1ccccc1Cn1cc(/C=C/[N+](=O)[O-])c2ccccc21,"inconclusive: 18.4 µM [cytotoxic, single point]",–
COC(=O)c1ccc(C(NC(=O)OCc2ccccc2)/C(F)=C/[C@@H](C)C(=O)NCc2ccc(OC)c(OC)c2)cc1 (stereo partly drawn),"inconclusive: 14.6 µM [cytotoxic, partial curve, poor fit]",–
Cc1ccccc1Oc1ccc2c(c1)[C@@H]1C[C@H](N(C)C(=S)Nc3ccc(F)cc3)[C@H]([C@H](C)O)C(=O)N1CC2,"inconclusive: 29.1 µM [cytotoxic, single point]",–
O=S(Cc1ccc(Br)cc1)Cc1nnc(SCc2ccc(Br)cc2)n1-c1ccccc1 (stereo not drawn),active: 16.4 µM,–
CCCC[n+]1ccn(C2=C([O-])c3ccccc3C(=O)/C2=N\S(=O)(=O)c2ccc(Cl)cc2)c1,"inconclusive: 32.6 µM [cytotoxic, single point]",–
CCOC(=O)N1CCN(c2c(F)cc3[nH]c(=S)[nH]c3c2Br)CC1,"inconclusive: 29.1 µM [cytotoxic, single point]",–
Cc1ccc(C)n1-c1c(C(=O)NN)cnn1-c1ccccc1,"inconclusive: 29.1 µM [rising, single point]",–
CSc1ccc(/C=C/C(=O)c2ccc(O)cc2)cc1,"inconclusive: 29.1 µM [cytotoxic, single point]",–
CCOC(=O)c1ccccc1NC(=O)N(C(C)C)C1CCN(C(C)=O)CC1,inactive,–
Oc1ccc(N=Nc2ccccc2)cc1,inactive,–
Cc1ccc(NC(=O)CSc2nnc(-c3ccco3)c(-c3ccco3)n2)cc1,active: 5.8 µM,–
CCCc1c(-c2ccc(F)cc2F)ncn1Cc1ccccc1OC,"inconclusive: 20.6 µM [cytotoxic, single point]",–
COc1ccc(-c2cc(=O)c3cc(C)ccc3[nH]2)cc1,inactive,–
CCSc1ccc2nnc(-c3cccc(F)c3)n2n1,inactive,–
O=C(NCCc1ccccc1)c1nnc(Cc2cccc(F)c2)o1,inactive,–
COc1ccc(-c2nc(C)c(CCNS(=O)(=O)c3cc(C)c(C)cc3C)s2)cc1,"inconclusive: 29.1 µM [cytotoxic, single point]",–

SMILES,Potency,"activity change, negative = cytotoxic"
CCCCc1ccc(NC(=O)c2ccc(=O)n(Cc3cccc(C)c3)c2)cc1,"inconclusive: 29.1 µM [cytotoxic, single point]",–
NC(Cc1ccccc1)c1csc(Nc2ccc(C(F)(F)F)cn2)n1 (stereo not drawn),"inconclusive: 29.1 µM [cytotoxic, single point]",–
N#Cc1c2n(c3c(=O)n(Cc4ccccc4Cl)cnc13)CCCCC2,"inconclusive: 16.4 µM [cytotoxic, partial curve, poor fit]",–
Cc1ccccc1-c1cc2nc(NCCCN(C)C)n(C)c(=O)c2s1,inactive,–
CC1(C)CC(Cc2ccc(C(F)(F)F)cn2)N(C(=O)OC(C)(C)C)C1 (stereo not drawn),inactive,–
CC(C)c1cc(CNC(=O)c2cc(COc3cncc(Cl)c3)on2)on1,inactive,–
CC(C)CC(N)c1csc(NC(=O)c2cc(C(C)(C)C)nn2Cc2ccccc2)n1 (stereo not drawn),"inconclusive: 29.1 µM [cytotoxic, single point]",–
O=c1[nH]cc(N2CCCCCC2)c(=O)[nH]1,inactive,–
Fc1ccc(Nc2nc(NCc3ccco3)c3ccccc3n2)cc1,"inconclusive: 29.1 µM [cytotoxic, single point]",–
COc1ccccc1NC(=O)c1ccc(NC(=O)CSc2nc(N)cc(=O)[nH]2)cc1,"inconclusive: 11.6 µM [rising, partial curve, poor fit]",–
Cc1ccc(C)c(OCC(=O)N2CCN(c3ncccn3)CC2)c1,"inconclusive: 23.1 µM [rising, single point]",–
CCOC(=O)C1(Cc2ccccc2C)CCCN(C(=O)COC)C1 (stereo not drawn),"inconclusive: 0.146 µM [rising, full curve]",–
CCOc1ccccc1N(CC(=O)NCCSc1ccccc1)S(=O)(=O)c1ccccc1,inactive,–
CCOc1[nH]n(-c2ccccc2)c(=O)c1C=Nc1ccc(C)cc1,inactive,–
Cc1cc(-c2csc(NC(=O)c3ccc(=O)[nH]c3)n2)c(C)n1Cc1ccccc1,inactive,–
O=C(Nc1ccc(N2CCOCC2)cc1)c1cc2c(s1)CCCCC2,"inconclusive: 23.1 µM [cytotoxic, single point]",–
Cc1cc(C)c(N2C(=O)CC(Sc3ccccc3N)C2=O)c(C)c1 (stereo not drawn),"inconclusive: 10.3 µM [cytotoxic, partial curve, poor fit]",–
COc1ccc(C2c3[nH]c4ccccc4c3CCN2C(=O)c2cn3ccccc3n2)c(F)c1 (stereo not drawn),"inconclusive: 16.4 µM [cytotoxic, single point]",–
Nc1c(-c2ccc(Cl)cc2)cnn1-c1cccc([N+](=O)[O-])c1,"inconclusive: 29.1 µM [cytotoxic, single point]",–
COc1ccc(/C=C/C(=O)Nc2sc3c(c2C(=O)NCc2cccnc2)CCCC3)cc1,inactive,–
Cc1cccc(N2CCN(C(=O)Nc3cn(CC(C)C)c(=O)c4ccccc34)CC2)c1C,inactive,–
COc1ccc(/C=C/C(=O)NC(=S)NNC(=O)c2ccco2)cc1,"inconclusive: 29.1 µM [cytotoxic, single point]",–
Cc1ccc2c(c1)C(=O)C(=O)N2Cc1ccc(Cl)cc1,"inconclusive: 29.1 µM [cytotoxic, single point]",–
